PubChem BioAssay AID504774 – Drosophila RNAi Screening Center, 2011
Purpose: 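Fly genes whose loss alters survival after alkylation damage to DNA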 (primary screen). System: Drosophila Kc167 cells. Knock-down reagent: long dsRNA against Drosophila genes, about 0.25 µg dsRNA per well. Time to read-out: about 6 days: 3 days knock-down, then 3 days with or without MMS. Challenge: methyl methanesulphonate 0.004% (w/v) for 3 days after knock-down. Measured: 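Viability in wells given MMS, read as ATP luminescence, normalised by quantiles plate by plate and averaged across replicates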. Reading the numbers: mean viability with MMS and viability with MMS: higher = more surviving cells after MMS.
The screen tested about 23,000 reagents; this is an unselected part of those that have a named target and a result. 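Values are quantile-normalised luminescence on an arbitrary scale; higher means more cells surviving MMS.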 Reagents against one gene are numbered here. Not all columns of the deposit are shown.

predicted target | reagent no. | mean viability with MMS | viability with MMS, replicate 1
CG32147 | 1 | 3.60e6 | 4.18e6
CG15443 | 1 | 3.69e6 | 4.22e6
CG33234 | 1 | 3.50e6 | 3.93e6
Caper | 1 | 3.12e6 | 3.38e6
yellow-g | 1 | 3.64e6 | 4.11e6
CG31706 | 1 | 3.46e6 | 3.92e6
CG34112 | 1 | 3.73e6 | 4.13e6
neo (neyo) | 1 | 3.62e6 | 4.16e6
Or65b (Odorant receptor 65b) | 1 | 3.61e6 | 4.14e6
CG42240 | 1 | 3.23e6 | 3.94e6
CR33294 (pseudo) | 1 | 3.56e6 | 4.07e6
CG9294 | 1 | 3.56e6 | 4.10e6
CG1690 | 1 | 3.32e6 | 3.80e6
CG9519 | 1 | 3.60e6 | 4.07e6
COX6AL2 (Cytochrome c oxidase subunit 6A-like 2) | 1 | 3.42e6 | 3.92e6
nord | 1 | 3.55e6 | 3.94e6
nord | 2 | 3.69e6 | 4.20e6
CG4291 | 1 | 3.51e6 | 3.77e6
CG9926 | 1 | 3.67e6 | 4.15e6
Osi18 (Osiris 18) | 1 | 3.47e6 | 3.95e6
CG10474 | 1 | 3.42e6 | 3.82e6
Su(var)3-3 (Suppressor of variegation 3-3) | 1 | 3.54e6 | 4.00e6
Trm1 (tRNA methyltransferase 1) | 1 | 3.63e6 | 4.13e6

A few values from the entries so far.
neo (neyo), mean viability with MMS: 3.62e6
Under “viability with MMS, replicate 1”, CG9926 has 4.15e6
Or65b (Odorant receptor 65b), viability with MMS, replicate 1 = 4.14e6
For “viability with MMS, replicate 1”, CG10474 is entered as 3.82e6

The list goes on:
predicted target | reagent no. | mean viability with MMS | viability with MMS, replicate 1
CG40378 (retired record) | 1 | 2.34e6 | 4.07e6
CG40378 (retired record) | 2 | 3.58e6 | 4.01e6
ppk8 (pickpocket 8) | 1 | 3.32e6 | 3.78e6
CG12213 | 1 | 3.60e6 | 4.07e6
CG12213 | 2 | 3.69e6 | 4.23e6
CG34149 | 1 | 3.45e6 | 3.95e6
Acbp3 (Acyl-CoA binding protein 3) | 1 | 3.72e6 | 4.14e6
CG9760 | 1 | 3.50e6 | 3.98e6
Gr93a (Gustatory receptor 93a) | 1 | 3.56e6 | 4.09e6
CG32170 | 1 | 3.50e6 | 4.04e6
CG4766 | 1 | 3.89e6 | 4.74e6
CG32983 | 1 | 3.51e6 | 4.00e6
CG1545 | 1 | 3.53e6 | 4.05e6
Rab40 | 1 | 3.44e6 | 3.78e6
lncRNA:CR42862 (long non-coding RNA:CR42862) | 1 | 3.47e6 | 3.85e6
Rh3 (Rhodopsin 3) | 1 | 3.73e6 | 4.13e6
Obp46a (Odorant-binding protein 46a) | 1 | 3.49e6 | 4.01e6
CG5693 | 1 | 3.50e6 | 3.96e6
CtsK2 (Cathepsin K2) | 1 | 3.57e6 | 4.07e6
CG7376 | 1 | 3.67e6 | 4.24e6
cad (caudal) | 1 | 2.55e6 | 3.40e6
cad (caudal) | 2 | 3.58e6 | 3.99e6
CG8665 | 1 | 3.46e6 | 3.79e6
CG14131 | 1 | 3.54e6 | 3.98e6
Rh2 (Rhodopsin 2) | 1 | 3.44e6 | 4.03e6
CG15128 | 1 | 3.49e6 | 3.87e6
CG8562 | 1 | 3.53e6 | 4.05e6
CG7900 | 1 | 3.47e6 | 4.26e6
CG7900 | 2 | 3.31e6 | 3.89e6
SkpD (SKP1-related D) | 1 | 3.70e6 | 4.18e6
Bap111 (Brahma associated protein 111kD) | 1 | 3.58e6 | 3.94e6
CG9257 | 1 | 3.59e6 | 4.10e6
DUBAI (Deubiquitinating apoptotic inhibitor) | 1 | 3.51e6 | 4.00e6
wash (washout) | 1 | 3.62e6 | 3.90e6
cav (caravaggio) | 1 | 3.62e6 | 4.10e6
CR31846 (retired record) | 1 | 3.58e6 | 4.08e6
CG13492 | 1 | 3.60e6 | 4.11e6
CG2186 | 1 | 3.61e6 | 4.24e6
CG6830 | 1 | 3.48e6 | 3.99e6
HLH54F | 1 | 3.60e6 | 4.09e6
Mlh1 | 1 | 3.58e6 | 4.07e6
CG15177 | 1 | 3.68e6 | 4.23e6
Ppox (Protoporphyrinogen oxidase) | 1 | 3.47e6 | 3.90e6
alphaTub84D (alpha-Tubulin at 84D) | 1 | 3.37e6 | 3.89e6
Ugt302E1 (UDP-glycosyltransferase family 302 member E1) | 1 | 3.44e6 | 4.00e6
